# Data: the supplement of paper PMC8728848
# This is one part of the list.
# Columns and labels:
# Test in all cases: glycan array binding signal (z-score within array); higher = stronger binding
# Details in all cases: glycan notation: IUPAC condensed, linker removed
# [1] = molecular target: Gal6S(b1-4)Glc6S
# Procedure, shortened: (§1)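 Negative Z-scores can be read as non-binding. The Z-score is calculated within each array and then averaged across arrays of one protein sequence at different concentrations or buffers and across linkers. Arrays, 3228 in all, were curated from the Consortium for Functional Glycomics database and kept only where the protein sequence was available.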
# [2] = molecular target: Gal6S(b1-4)GlcNAc
# Procedure, shortened: as §1
# [3] = molecular target: Gal6S(b1-4)GlcNAc6S
# Procedure, shortened: as §1
# [4] = molecular target: GalNAc(a1-3)Gal
# Procedure, shortened: as §1
# [5] = molecular target: GalNAc(a1-3)GalNAc
# Procedure, shortened: as §1
# [6] = molecular target: GalNAc(a1-3)GalNAc(b1-3)Gal(a1-4)Gal(b1-4)Glc
# Procedure, shortened: as §1
# [7] = molecular target: GalNAc(a1-3)GalNAc(b1-3)Gal(a1-4)Gal(b1-4)GlcNAc
# Procedure, shortened: as §1
# [8] = molecular target: GalNAc(b1-3)Gal
# Procedure, shortened: as §1
# [9] = molecular target: GalNAc(b1-3)Gal(a1-4)Gal(b1-4)GlcNAc
# Procedure, shortened: as §1
# [10] = molecular target: GalNAc(b1-3)Gal(a1-4)Gal(b1-4)GlcNAc(b1-3)Gal(b1-4)Glc
# Procedure, shortened: as §1
# [11] = molecular target: GalNAc(b1-3)Gal(a1-6)Gal(b1-4)Glc
# Procedure, shortened: as §1
# [12] = molecular target: GalNAc(b1-3)GalNAc
# Procedure, shortened: as §1
# [13] = molecular target: GalNAc(b1-3)GlcNAc
# Procedure, shortened: as §1
# [14] = molecular target: GalNAc(b1-4)Gal(b1-4)Glc
# Procedure, shortened: as §1
# [15] = molecular target: GalNAc(b1-4)GlcNAc
# Procedure, shortened: as §1
# [16] = molecular target: GalNAc(b1-4)GlcNAc(b1-2)Man
# Procedure, shortened: as §1
# [17] = molecular target: GalNAc(b1-4)GlcNAc(b1-2)Man(a1-3)[GalNAc(b1-4)GlcNAc(b1-2)Man(a1-6)]Man(b1-4)GlcNAc(b1-4)GlcNAc
# Procedure, shortened: as §1
# [18] = molecular target: GalNAc(b1-4)GlcNAc(b1-3)GalNAc(b1-4)GlcNAc
# Procedure, shortened: as §1
# [19] = molecular target: GalNAc(b1-4)GlcNAc6S
# Procedure, shortened: as §1
# [20] = molecular target: GalNAc(b1-6)GalNAc
# Procedure, shortened: as §1
# [21] = molecular target: GalNAc3S(b1-4)GlcNAc
# Procedure, shortened: as §1
# [22] = molecular target: GalNAc3S(b1-4)GlcNAc3S
# Procedure, shortened: as §1
# [23] = molecular target: GalNAc3S(b1-4)[Fuc(a1-3)]GlcNAc
# Procedure, shortened: as §1
# [24] = molecular target: GalNAc4S6S(b1-4)GlcNAc
# Procedure, shortened: as §1
# [25] = molecular target: GalNAc6S(b1-4)GlcNAc
# Procedure, shortened: as §1
# [26] = molecular target: Glc(a1-4)Glc
# Procedure, shortened: as §1
# [27] = molecular target: Glc(a1-4)Glc(a1-4)Glc(a1-4)Glc
# Procedure, shortened: as §1
# [28] = molecular target: Glc(a1-6)Glc(a1-6)Glc
# Procedure, shortened: as §1
# [29] = molecular target: Glc(a1-6)Glc(a1-6)Glc(a1-6)Glc
# Procedure, shortened: as §1
# [30] = molecular target: Glc(b1-4)Glc
# Procedure, shortened: as §1
# [31] = molecular target: Glc(b1-6)Glc
# Procedure, shortened: as §1
# [32] = molecular target: GlcA(b1-3)Gal
# Procedure, shortened: as §1
# [33] = molecular target: GlcA(b1-3)GlcNAc
# Procedure, shortened: as §1
# [34] = molecular target: GlcA(b1-6)Gal
# Procedure, shortened: as §1
# [35] = molecular target: GlcA3S(b1-3)Gal(b1-4)GlcNAc(b1-2)Man
# Procedure, shortened: as §1
# [36] = molecular target: GlcA3S(b1-3)Gal(b1-4)GlcNAc(b1-3)Gal(b1-4)Glc
# Procedure, shortened: as §1
# [37] = molecular target: GlcNAc(a1-3)Gal(b1-4)GlcNAc
# Procedure, shortened: as §1
# [38] = molecular target: GlcNAc(a1-4)Gal(b1-3)GlcNAc
# Procedure, shortened: as §1
# [39] = molecular target: GlcNAc(a1-4)Gal(b1-4)GalNAc
# Procedure, shortened: as §1
# [40] = molecular target: GlcNAc(a1-4)Gal(b1-4)GlcNAc
# Procedure, shortened: as §1
# [41] = molecular target: GlcNAc(a1-4)Gal(b1-4)GlcNAc(b1-3)Gal(b1-4)Glc
# Procedure, shortened: as §1
# [42] = molecular target: GlcNAc(a1-4)Gal(b1-4)GlcNAc(b1-3)Gal(b1-4)GlcNAc
# Procedure, shortened: as §1
# [43] = molecular target: GlcNAc(a1-4)Gal(b1-4)GlcNAc(b1-3)Gal(b1-4)GlcNAc(b1-3)Gal(b1-4)GlcNAc
# Procedure, shortened: as §1
# [44] = molecular target: GlcNAc(a1-4)Gal(b1-4)GlcNAc(b1-3)Gal(b1-4)[Fuc(a1-3)]GlcNAc(b1-3)Gal(b1-4)[Fuc(a1-3)]GlcNAc
# Procedure, shortened: as §1
# [45] = molecular target: GlcNAc(a1-6)Gal(b1-4)GlcNAc
# Procedure, shortened: as §1
binder,measurement,setting,value
"Awp3 (Candida glabrata), B4UN32 (protein) MISFVTLLAILGLLSISWADQTVRSVAGDQRVTDPVIVGDNSILDYYGGSNYDFSNNFEIGRGTLYIGKESYFSSFQSAPTDVPNSFHLLIKNTNNLQNNGQFIIENIKRHANQCSNSSIQVFPINFQNDGEFEIISGGVEGRCCLPTSVIAPQNFLNNGKFYYKVLTDTGSIYSGSCMQNVDIGASTTTTVNNNLWEFTGSINAQINGAVSGAAQINLDGSNMFVNANTFSGQVVNLINGGSFLQTSDPLSNIVVINGLGTSDTGVTSIAVKGKGKSFTYNPSSGIVKLTTVEGKTYAYQIGCGYNTKKFITNNDSGASYESADNFFVLTYSEPYSPQTCQLENSSIFSSNFISTSTSSSSSSSSASSLPSSMSSSLPSSLSSSLSSSLSSSMSSSMSSLFIIPPPYTTTRSSGSSIIDTEIVSFYSTTDSPGHTITGTTTTTLYGPHTHSSVSTPSSSSESSTTSNSSIESSSLPHTSVSSTPESSITPSSNTISSSPTSDFSSVQSSSIMESSSVVASSSVINSSSIVDSSSSSASSLPSSMSSSLSSSMSSSLPSSMSSSLSSSLSSSLSSSMSSSMSSLFIIPPPYTTTRSSGSSIIDTEIVSFYSTTDSPGHTITGTTTTTLYGPHTHSSVSTPSSSSESSTTSNSSIESSSLPHTSVSSTPESSITPSSNTISSSPTSDFSSVQSSSIMESSSVVASSSVINSSSIVDSSSSSASSLPSSMPSSLPSSMSSSLSSSMSSSLSSSLSSSLSSSMSSSMSSLFIIPPPYTTTRSSGSSIIDTEIVSFYSTTDSPGHTITGTTTTTLYGPHTHSSVSTPSSSSESSTTSNSSIESSSLPHTSVSSTPESSITPSSNTISSSPTSDFSSVQSSSIMESSSVVASSSATQSSSVINSSSIVDSSSSSASSLPSSMPSSLPSSLSSSLSSSLSSSMSSSMSSLFIIPPPYTTTRSSGSSIIDTEIVSFYSTTDSPGHTITGTTTTTLYESSIYSSSSSTIQESELSNTSRTTMTSNSSVSISSTSSRSSFSNTKSSTIVISQSASLPDSKTDIILSTSSNIGYSSRSLLSDLGTSISDSDIHHSVLHSTESYSSNESGTNPFTSIASLSNFIPESSSHTSTALGSENSVISSDILTTMSHPVATNSGDKPTTPKRSEQVSTTMTSSGPTPDTSSFDTDGMSAYSRPEFTTNSLEVNKSSTSQLGNNKQTFSNLQLESTRPHSENEVDNNTRLLQSIQQSSTYGTNNVNPLSPTGSISIPLTEDGQGDNNNWNSPATNDLCTQISFNLTATTITVTDRITITDSIHDISSEVITSYIYQTIVDQKTVTQTVDGKSLANKMSSIPKPSSRSLIQPQPPVAIELQEGAASTSRVSLVSLFISIILVLL",glycan array binding signal (z-score),[1],-0.858
same,glycan array binding signal (z-score),[2],-0.916
same,glycan array binding signal (z-score),[3],0.823
same,glycan array binding signal (z-score),[4],-1.64
same,glycan array binding signal (z-score),[5],1.65
same,glycan array binding signal (z-score),[6],0.575
same,glycan array binding signal (z-score),[7],-0.69
same,glycan array binding signal (z-score),[8],-1.03
same,glycan array binding signal (z-score),[9],0.048
same,glycan array binding signal (z-score),[10],0.371
same,glycan array binding signal (z-score),[11],-0.02
same,glycan array binding signal (z-score),[12],-0.016
same,glycan array binding signal (z-score),[13],0.71
same,glycan array binding signal (z-score),[14],-0.258
same,glycan array binding signal (z-score),[15],0.598
same,glycan array binding signal (z-score),[16],-0.52
same,glycan array binding signal (z-score),[17],-0.86
same,glycan array binding signal (z-score),[18],0.204
same,glycan array binding signal (z-score),[19],1.93
same,glycan array binding signal (z-score),[20],0.141
same,glycan array binding signal (z-score),[21],3.17
same,glycan array binding signal (z-score),[22],-0.246
same,glycan array binding signal (z-score),[23],-0.523
same,glycan array binding signal (z-score),[24],1.26
same,glycan array binding signal (z-score),[25],-0.649
same,glycan array binding signal (z-score),[26],-0.148
same,glycan array binding signal (z-score),[27],1.35
same,glycan array binding signal (z-score),[28],-0.29
same,glycan array binding signal (z-score),[29],-0.202
same,glycan array binding signal (z-score),[30],0.358
same,glycan array binding signal (z-score),[31],-1.17
same,glycan array binding signal (z-score),[32],0.694
same,glycan array binding signal (z-score),[33],0.147
same,glycan array binding signal (z-score),[34],-0.166
same,glycan array binding signal (z-score),[35],0.092
same,glycan array binding signal (z-score),[36],1.22
same,glycan array binding signal (z-score),[37],-1.5
same,glycan array binding signal (z-score),[38],-1.28
same,glycan array binding signal (z-score),[39],-0.677
same,glycan array binding signal (z-score),[40],0.255
same,glycan array binding signal (z-score),[41],-0.466
same,glycan array binding signal (z-score),[42],-0.221
same,glycan array binding signal (z-score),[43],-0.678
same,glycan array binding signal (z-score),[44],-0.632
same,glycan array binding signal (z-score),[45],-0.59

# Shown bar-delimited: part of the list above.
binder | measurement | setting | value
Awp3 (Candida glabrata), B4UN32 (protein) MISFVTLLAILGLLSISWADQTVRSVAGDQRVTDPVIVGDNSILDYYGGSNYDFSNNFEIGRGTLYIGKESYFSSFQSAPTDVPNSFHLLIKNTNNLQNNGQFIIENIKRHANQCSNSSIQVFPINFQNDGEFEIISGGVEGRCCLPTSVIAPQNFLNNGKFYYKVLTDTGSIYSGSCMQNVDIGASTTTTVNNNLWEFTGSINAQINGAVSGAAQINLDGSNMFVNANTFSGQVVNLINGGSFLQTSDPLSNIVVINGLGTSDTGVTSIAVKGKGKSFTYNPSSGIVKLTTVEGKTYAYQIGCGYNTKKFITNNDSGASYESADNFFVLTYSEPYSPQTCQLENSSIFSSNFISTSTSSSSSSSSASSLPSSMSSSLPSSLSSSLSSSLSSSMSSSMSSLFIIPPPYTTTRSSGSSIIDTEIVSFYSTTDSPGHTITGTTTTTLYGPHTHSSVSTPSSSSESSTTSNSSIESSSLPHTSVSSTPESSITPSSNTISSSPTSDFSSVQSSSIMESSSVVASSSVINSSSIVDSSSSSASSLPSSMSSSLSSSMSSSLPSSMSSSLSSSLSSSLSSSMSSSMSSLFIIPPPYTTTRSSGSSIIDTEIVSFYSTTDSPGHTITGTTTTTLYGPHTHSSVSTPSSSSESSTTSNSSIESSSLPHTSVSSTPESSITPSSNTISSSPTSDFSSVQSSSIMESSSVVASSSVINSSSIVDSSSSSASSLPSSMPSSLPSSMSSSLSSSMSSSLSSSLSSSLSSSMSSSMSSLFIIPPPYTTTRSSGSSIIDTEIVSFYSTTDSPGHTITGTTTTTLYGPHTHSSVSTPSSSSESSTTSNSSIESSSLPHTSVSSTPESSITPSSNTISSSPTSDFSSVQSSSIMESSSVVASSSATQSSSVINSSSIVDSSSSSASSLPSSMPSSLPSSLSSSLSSSLSSSMSSSMSSLFIIPPPYTTTRSSGSSIIDTEIVSFYSTTDSPGHTITGTTTTTLYESSIYSSSSSTIQESELSNTSRTTMTSNSSVSISSTSSRSSFSNTKSSTIVISQSASLPDSKTDIILSTSSNIGYSSRSLLSDLGTSISDSDIHHSVLHSTESYSSNESGTNPFTSIASLSNFIPESSSHTSTALGSENSVISSDILTTMSHPVATNSGDKPTTPKRSEQVSTTMTSSGPTPDTSSFDTDGMSAYSRPEFTTNSLEVNKSSTSQLGNNKQTFSNLQLESTRPHSENEVDNNTRLLQSIQQSSTYGTNNVNPLSPTGSISIPLTEDGQGDNNNWNSPATNDLCTQISFNLTATTITVTDRITITDSIHDISSEVITSYIYQTIVDQKTVTQTVDGKSLANKMSSIPKPSSRSLIQPQPPVAIELQEGAASTSRVSLVSLFISIILVLL | glycan array binding signal (z-score) | [40] | 0.255
same | glycan array binding signal (z-score) | [41] | -0.466
